{"source": "PubChem BioAssay AID504467", "about": "(National Center for Advancing Translational Sciences (NCATS), 2011)", "note": "Out of some 330,000 compounds screened, about 7,700 (2.3%) were called active. This list was built around the results that the source calls inconclusive (neither active nor inactive); the mix of calls is not that of the screen. Calls come from the whole dose curve; as a rule, active = well fitted inhibition curve with a large enough effect; inconclusive = small, poorly fitted or top-dose-only effect, or effect the other way; inactive = flat fitted curve, though single readings scatter. A potency beside an inconclusive call is a rough fit, not a confirmed value. % is set by controls: 0 for no effect and ±100 for the full control effect; potency is the fitted concentration of half-maximal effect.", "data": [{"assay": "qHTS screen for small molecules that inhibit ELG1-dependent DNA repair in human embryonic kidney (HEK293T) cells expressing luciferase-tagged ELG1; note: nearly all actives have a fitted effect of over 55% in size", "settings": "HEK293T ELG1-luciferase reporter, luminescence, 16 h, DNA damage induced by 5-fluorouridine; activity change, negative = inhibition: at 46.1 µM (top of the series)", "description": "NIH Molecular Libraries Probe Production Network [MLPCN] NIH Chemical Genomics Center [NCGC] MLPCN Grant: 1 R03 MH092164-01 Assay Provider: Kyungjae Myung, NHGRI, NIH Keywords: MLPCN, qHTS, NCGC, genotoxicity, cancer Assay Overview: Cancer cells divide rapidly compared to normal cells in the body. During cell division, cancer cells need to duplicate their genome by DNA replication. The failure of genome duplication leads to cancer cells' death. Therefore, inhibitors of DNA replication could specifically kill cancer cells. Based on this concept, many chemotherapeutic agents were developed and have been used to treat cancer patients. However, there are a limited number of agents available in the clinical setting, and some of those that do exist have low efficacy and severe side effects. Therefore, if we can find the compounds that effectively block DNA replication either by directly damaging DNA or by inhibiting other cellular mechanisms, the options for cancer treatment will be broadened. With this in mind, we developed a quantitative high-throughput ELG1-luciferase reporter gene assay. Small molecules that specifically block ELG1 function in response to DNA damage can be identified by monitoring the suppression of luciferase activity. Since ELG1 defines a pathway for repairing DNA damage, agents blocking ELG1 function can be used to sensitize cancer cells to chemotherapeutic agents whose mechanism of action involves the induction of DNA damage.\nAssay Protocol Summary: For genotoxicity screening, 2,000 cells in 4 uL/well were dispensed into white, solid-bottom 1536-well plates using a solenoid-based dispenser. Following transfer of 1 uL 5-Fluorouridine and 23 nL compound or DMSO vehicle by a pin tool, the plates were incubated 16 hr at 37 °C and 5% CO2. 5 ul ONE-Glo (Promega) was then added to each plate and following a 30 min incubation at room temperature, luciferase activity was quantified on a ViewLux CCD-based plate reader.", "values": [{"smiles": "CC1(C)NC(=O)N(CCOCCOc2ccc3ccccc3c2Br)C1=O", "Potency": "inconclusive: 16.4 µM [activator, single point]"}, {"smiles": "COc1ccccc1N1CCN(C(=O)c2ccc(-c3nc4ccccc4s3)o2)CC1", "Potency": "inconclusive: 5.17 µM [inhibitor, single point]"}, {"smiles": "CC(=O)c1ccc(N2CCN(CC(=O)Nc3ccc(N4CCOCC4)cc3)CC2)cc1", "activity change, negative = inhibition": "inactive: -1.94%"}, {"smiles": "COc1ccc(CCCc2nnc(SCC(=O)Nc3cc(C)ccc3C)o2)cc1", "Potency": "inconclusive: 32.6 µM [inhibitor, partial curve, poor fit]"}, {"smiles": "COC(=O)c1ccccc1NC(=O)c1ccc(COc2cc(C)cc(C)c2)o1", "activity change, negative = inhibition": "inactive: -12%"}, {"smiles": "CC1CCN(C(=O)c2ccc(S(=O)(=O)NCc3ccco3)cc2)CC1", "activity change, negative = inhibition": "inactive: -2.38%"}, {"smiles": "CC(Oc1ccccc1)C(=O)Nc1nnc(C2CCCCC2)s1", "note": "(configuration not stated)", "Potency": "inconclusive: 18.3 µM [activator, partial curve]"}, {"smiles": "CCOC(=O)C(Cc1ccc(NC(C)=O)cc1)N1C(=O)c2ccccc2C1=O", "note": "(configuration not stated)", "Potency": "inconclusive: 23.1 µM [inhibitor, single point]"}, {"smiles": "O=C(CC1C(=O)NCCN1C/C=C/c1ccccc1)NCCc1cccnc1", "note": "(configuration not stated)", "Potency": "inconclusive: 20.6 µM [activator, single point]"}, {"smiles": "CCCCOc1ccc(C(=O)NCC(=O)NCC(c2ccc(F)cc2)N2CCOCC2)cc1", "note": "(configuration not stated)", "activity change, negative = inhibition": "inactive: 9.81%"}, {"smiles": "CCOC(=O)c1cnc2cc(-c3ccc(C(C)(C)C)cc3)nn2c1N", "Potency": "inconclusive: 10.3 µM [activator, single point]"}, {"smiles": "Cc1ccc(OCCN2CCN(c3ncnc4sc(C)c(C)c34)CC2)cc1", "Potency": "inconclusive: 1.3 µM [inhibitor, full curve]"}, {"smiles": "CCSc1nc(C2CC2)cc(-c2cccs2)c1C#N", "Potency": "inconclusive: 29.1 µM [activator, single point]"}, {"smiles": "O=C(NC1CC1)c1ccc2c(c1)S(=O)(=O)c1cc(Cl)ccc1C2=O", "activity change, negative = inhibition": "inactive: 11.3%"}, {"smiles": "COc1ccccc1CNC(=O)CCC(=O)n1ncc2cc(C)ccc21", "Potency": "inconclusive: 16.4 µM [activator, partial curve, poor fit]"}, {"smiles": "COc1cc(/C=C2\\C(=O)NN(c3ccc(C)cc3)C2=O)cc([N+](=O)[O-])c1O", "activity change, negative = inhibition": "inactive: 10.5%"}, {"smiles": "Cc1ccsc1/C=N/NC(=O)c1cccnc1", "activity change, negative = inhibition": "inactive: 19.9%"}, {"smiles": "Nc1nnc(SCC(=O)Nc2cccc(S(=O)(=O)N3CCCCC3)c2)s1", "activity change, negative = inhibition": "inactive: 0.107%"}, {"smiles": "Cc1ccccc1C(=O)NC(CC(C)C)C(=O)OCc1cc(=O)n2cc(Br)ccc2n1", "note": "(configuration not stated)", "Potency": "inconclusive: 13 µM [activator, partial curve]"}, {"smiles": "COc1ccc(Cc2noc(CN3CCN(C4CCc5ccccc5C4)CC3)n2)cc1OC", "note": "(configuration not stated)", "Potency": "inconclusive: 23.1 µM [inhibitor, partial curve]"}, {"smiles": "O=C(NCc1ccc(Cl)cc1)C1CCC(CNc2c(N3CCCCC3)c(=O)c2=O)CC1", "note": "(configuration not stated)", "Potency": "inconclusive: 4.61 µM [inhibitor, partial curve]"}, {"smiles": "C=CCc1ccccc1OCC(O)CN1C(=O)c2ccccc2C1=O", "note": "(configuration not stated)", "activity change, negative = inhibition": "inactive: 2.08%"}, {"smiles": "CC(C)c1ccc(NC(=S)N2CCN(C)CC2)cc1", "Potency": "inconclusive: 20.6 µM [activator, partial curve]"}, {"smiles": "CC(C)Cc1nnc(NC(=O)c2ccc(N3CCCC3=O)cc2)s1", "activity change, negative = inhibition": "inactive: 12%"}, {"smiles": "COc1ccc(C(=O)N2CCC(C(=O)Nc3ccccc3C)CC2)cc1OC", "activity change, negative = inhibition": "inactive: 9.14%"}, {"smiles": "COc1ccc(/C=C/C(=O)OCC(=O)NC2CCCCC2C)c(OC)c1", "note": "(configuration not stated)", "activity change, negative = inhibition": "inactive: -4.46%"}, {"smiles": "O=C(COC(=O)CSc1ccc([N+](=O)[O-])cc1)NC1CCCCCCC1", "Potency": "inconclusive: 5.17 µM [activator, partial curve, poor fit]"}, {"smiles": "CCOC(=O)c1cnc(-n2nc(C)cc2C)nc1NNc1ncc(-c2ccccc2)cn1", "Potency": "inconclusive: 5.8 µM [inhibitor, single point]"}, {"smiles": "COc1cccc2sc3ccc(NCCC4CCCN4C)cc3c(=O)c12", "note": "(configuration not stated)", "activity change, negative = inhibition": "inactive: 10.1%"}, {"smiles": "O=c1[nH]c(SCc2ccc([N+](=O)[O-])cc2)nc2[nH]ncc12", "Potency": "inconclusive: 20.6 µM [activator, single point]"}, {"smiles": "CC(=O)Nc1ccc(NC(=O)CCc2nc3ccccc3c(=O)[nH]2)cc1", "activity change, negative = inhibition": "inactive: -0.933%"}, {"smiles": "COc1ccccc1CNC(=O)CCc1nnc2ccc(NCCCN3CCCC3=O)nn12", "activity change, negative = inhibition": "inactive: 11.7%"}, {"smiles": "O=C(O)c1ccc(NC2=C(Cl)C(=O)c3ccccc3C2=O)cc1", "Potency": "inconclusive: 29.1 µM [inhibitor, single point]"}, {"smiles": "Cc1ccc(CNC(=O)C2CCC(=O)N(C3CC3)C2)cc1", "note": "(configuration not stated)", "Potency": "inconclusive: 23.1 µM [activator, single point]"}, {"smiles": "Cc1noc(C)c1S(=O)(=O)N(C)C[C@H]1Oc2ccc(NC(=O)NC3CCCCC3)cc2C(=O)N([C@H](C)CO)C[C@@H]1C", "activity change, negative = inhibition": "inactive: 7.63%"}, {"smiles": "O=C(Nc1cccc(S(=O)(=O)Nc2ccc(Cl)cc2)c1)c1cc2c(s1)CCCC2", "Potency": "inconclusive: 23.1 µM [inhibitor, partial curve]"}, {"smiles": "CCNC(=O)Cc1c(OC)ccc2cc(Br)ccc12", "Potency": "inconclusive: 20.6 µM [inhibitor, single point]"}, {"smiles": "COc1ccc(Cc2noc(CN(C)Cc3ccc(-n4cccn4)cc3)n2)cc1OC", "Potency": "inconclusive: 20.6 µM [inhibitor, single point]"}, {"smiles": "COC(=O)/C(=N\\OCc1ccc(C#N)cc1)c1c(C)nn(C)c1C", "activity change, negative = inhibition": "inactive: 5.59%"}, {"smiles": "COC(=O)c1ccccc1NC(=O)c1ccc(COc2ccc3c(c2)CCC3)cc1", "Potency": "inconclusive: 14.6 µM [activator, partial curve]"}, {"smiles": "CC(=O)Nc1ccc(NC(=O)c2ccc(COc3ccc(C)cc3)o2)cc1", "activity change, negative = inhibition": "inactive: 19.9%"}, {"smiles": "CC(=O)N/C(=C\\c1ccccc1)C(=O)OCc1cccc(S(=O)(=O)N(C)C)c1", "Potency": "active: 7.3 µM"}, {"smiles": "O=C(CNC(=O)c1ccco1)NC1CCCCCC1", "Potency": "inconclusive: 16.4 µM [activator, partial curve]"}, {"smiles": "COc1ccccc1N1CCN(C(=O)c2cc(-c3ccc(C)cc3)on2)CC1", "Potency": "inconclusive: 4.61 µM [inhibitor, single point]"}, {"smiles": "COc1cc(CNc2ccc(N3CCN(C(C)=O)CC3)cc2)ccc1OCc1ccc(F)cc1", "Potency": "inconclusive: 6.51 µM [inhibitor, partial curve]"}, {"smiles": "O=C(COc1ccc(Cl)cc1Cl)NC(=O)N1CCOCC1", "Potency": "inconclusive: 23.1 µM [activator, partial curve]"}, {"smiles": "CC(C)NC(=O)CN1CCN(C(=O)c2ccc3oc(CCCc4ccccc4)nc3c2)CC1", "Potency": "inconclusive: 3.26 µM [inhibitor, partial curve, poor fit]"}, {"smiles": "CN(C)c1ccc(/C(=N\\O)C(F)(F)F)cc1", "Potency": "inconclusive: 5.17 µM [inhibitor, partial curve, poor fit]"}, {"smiles": "COc1ccc(N=C(C)c2sc3ccccc3c2O)cc1", "Potency": "inconclusive: 2.06 µM [activator, full curve]"}, {"smiles": "Cc1cc(C)c(C#N)c(SCC(=O)Nc2nnc(-c3ccccc3)s2)n1", "activity change, negative = inhibition": "inactive: 13.4%"}, {"smiles": "CCC(C(=O)N1CCN(c2ccccc2OC)CC1)c1ccccc1", "note": "(configuration not stated)", "Potency": "inconclusive: 18.4 µM [inhibitor, single point]"}, {"smiles": "COc1cc(C(=O)Nc2ccc3c(c2)nc(C)n3C)cc(OC)c1OC", "Potency": "inconclusive: 29.1 µM [activator, single point]"}, {"smiles": "COc1ccc2[nH]c3c(N4CCc5ccccc5C4)ncnc3c2c1", "Potency": "inconclusive: 7.3 µM [inhibitor, partial curve]"}, {"smiles": "CC(C)(CO)Nc1nc(Nc2ccccc2)nc(Nc2ccccc2)n1", "Potency": "inconclusive: 25.9 µM [inhibitor, single point]"}, {"smiles": "CNS(=O)(=O)c1cccc(C(=O)NNC(=O)c2ccc(COc3ccccc3)cc2)c1", "activity change, negative = inhibition": "inactive: -24.7%"}, {"smiles": "CN(CC(=O)Nc1ccc(F)cc1)C(=O)CN1C(=O)NC2(CCCC2)C1=O", "activity change, negative = inhibition": "inactive: 14%"}, {"smiles": "COc1ccc(C2(C)NC(=O)N(CC(=O)N(c3ccccc3)C3CCS(=O)(=O)C3)C2=O)cc1", "note": "(configuration not stated)", "Potency": "inconclusive: 16.4 µM [activator, partial curve, poor fit]"}, {"smiles": "Cc1ccc(C)c(Nc2cc(C(=O)NCc3cccnc3)c3ccccc3n2)c1", "activity change, negative = inhibition": "inactive: -12.6%"}, {"smiles": "Cc1ccc(NC(=S)NCCc2ccc(S(N)(=O)=O)cc2)cc1C", "activity change, negative = inhibition": "inactive: -14.1%"}, {"smiles": "CCc1nc(SCC(=O)Nc2ccc(Br)cn2)n[nH]1", "activity change, negative = inhibition": "inactive: 0%"}, {"smiles": "CCn1c(=O)cc(SCC(=O)Nc2cccnc2)c2ccccc21", "Potency": "inconclusive: 2.31 µM [activator, full curve, poor fit]"}, {"smiles": "CCOC(=O)c1nc(S(C)(=O)=O)ncc1Cl", "Potency": "inconclusive: 9.2 µM [activator, partial curve, poor fit]"}, {"smiles": "CCC(C)(C)NC(=O)CN(Cc1ccc(F)cc1)C(=O)CCC(=O)Nc1ccccn1", "activity change, negative = inhibition": "inactive: -0.175%"}, {"smiles": "CC(C)C(NC=C1C(=O)OC(C)(C)OC1=O)C(=O)O", "note": "(configuration not stated)", "Potency": "inconclusive: 0.259 µM [activator, partial curve, poor fit]"}, {"smiles": "COc1cc(/C=N/NC(=O)COc2ccc(C)cc2)ccc1OC(=O)c1cccs1", "Potency": "inconclusive: 18.4 µM [activator, single point]"}, {"smiles": "Cc1cccc(NS(=O)(=O)c2cccc(C(=O)NCc3ccccc3CN3CCOCC3)c2)c1", "Potency": "inconclusive: 29.1 µM [inhibitor, partial curve, poor fit]"}, {"smiles": "N/C(=N\\OC(=O)c1ccc2c(c1)OCO2)c1ccc(Br)cc1", "Potency": "inconclusive: 18.3 µM [activator, partial curve]"}, {"smiles": "O=C(O)c1ccc(Nc2nc3ccc(Cl)cc3[nH]2)cc1", "activity change, negative = inhibition": "inactive: 13%"}, {"smiles": "COc1ccc(S(=O)(=O)N(C)c2ccc(C(=O)N3CCCC3)cc2)cc1", "activity change, negative = inhibition": "inactive: -13.6%"}, {"smiles": "O=C(CCC1CCCN(C(=O)COc2ccccc2)C1)N1CCN(c2ccccn2)CC1", "note": "(configuration not stated)", "Potency": "active: 20.6 µM"}, {"smiles": "CC(=O)c1ccc(S(=O)(=O)N2CCC3(CC2)CC(=O)c2ccccc2O3)cc1", "activity change, negative = inhibition": "inactive: -0.958%"}, {"smiles": "Cc1ccc(C(=O)NCC(=O)OCC(=O)NC2CCS(=O)(=O)C2)cc1C", "note": "(configuration not stated)", "Potency": "inconclusive: 16.4 µM [activator, partial curve, poor fit]"}]}]}
